Laboratory results from publication doi:10.1101/2020.06.29.177584.
No constants are given. Whether binding was seen depends on the method and setting. Binding seen in cells or lysates may run through a third protein. A result given as binding can be weak or reduced; the word gives no strength. For some of these results: Sequences can lack the tags named with a protein.

The chains behind the UniProt entries cited, without tags or fusion partners. Where a name states a change or a piece, a line headed by the entry shows the natural chain unless it says otherwise. Residues count along the entry.
UniProt Q3URK3, residues 734-2039: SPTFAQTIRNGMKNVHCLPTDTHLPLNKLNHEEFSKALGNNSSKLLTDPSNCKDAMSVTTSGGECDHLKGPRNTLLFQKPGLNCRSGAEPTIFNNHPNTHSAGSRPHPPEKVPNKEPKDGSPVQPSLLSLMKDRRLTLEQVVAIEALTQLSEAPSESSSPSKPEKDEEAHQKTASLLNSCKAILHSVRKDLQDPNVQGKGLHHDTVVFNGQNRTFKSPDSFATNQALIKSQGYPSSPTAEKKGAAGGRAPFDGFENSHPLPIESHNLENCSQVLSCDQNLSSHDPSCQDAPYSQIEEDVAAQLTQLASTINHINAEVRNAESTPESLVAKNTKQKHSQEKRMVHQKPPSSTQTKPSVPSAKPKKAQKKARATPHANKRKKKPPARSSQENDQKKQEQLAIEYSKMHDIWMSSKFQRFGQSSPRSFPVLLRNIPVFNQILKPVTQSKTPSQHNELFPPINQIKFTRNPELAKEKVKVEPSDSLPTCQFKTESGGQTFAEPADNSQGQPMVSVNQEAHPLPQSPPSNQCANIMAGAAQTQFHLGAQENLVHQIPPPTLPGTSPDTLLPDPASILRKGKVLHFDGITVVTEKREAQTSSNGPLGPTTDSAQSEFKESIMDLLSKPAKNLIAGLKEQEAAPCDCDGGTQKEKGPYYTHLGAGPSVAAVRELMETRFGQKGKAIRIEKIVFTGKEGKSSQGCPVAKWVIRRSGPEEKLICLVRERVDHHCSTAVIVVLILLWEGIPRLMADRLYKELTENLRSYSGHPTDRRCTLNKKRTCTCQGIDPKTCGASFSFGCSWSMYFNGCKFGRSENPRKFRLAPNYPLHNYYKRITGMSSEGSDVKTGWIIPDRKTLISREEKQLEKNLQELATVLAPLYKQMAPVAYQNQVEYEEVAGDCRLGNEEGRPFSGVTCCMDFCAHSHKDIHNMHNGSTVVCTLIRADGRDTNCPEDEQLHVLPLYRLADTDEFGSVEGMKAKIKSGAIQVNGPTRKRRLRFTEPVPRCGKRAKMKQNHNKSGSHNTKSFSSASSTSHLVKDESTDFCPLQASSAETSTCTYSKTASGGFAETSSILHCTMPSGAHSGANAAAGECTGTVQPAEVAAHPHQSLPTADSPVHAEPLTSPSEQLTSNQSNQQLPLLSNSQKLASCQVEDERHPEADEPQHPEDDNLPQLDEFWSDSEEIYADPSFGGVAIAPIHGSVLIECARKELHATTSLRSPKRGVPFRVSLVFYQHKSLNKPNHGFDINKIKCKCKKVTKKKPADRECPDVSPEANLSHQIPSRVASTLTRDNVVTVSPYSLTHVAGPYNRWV

Columns and labels:
[1] = molecular target: (Flag)3-TET1 734-2039 (mouse) (UniProt Q3URK3); test: co-IP
[2] = molecular target: MBP-TET1 1-120, arginine to alanine mutant within residues 109-120 (mouse) (UniProt Q3URK3); test: pull-down
[3] = molecular target: MBP-TET1 1-120, proline to alanine mutant within residues 109-120 (mouse) (UniProt Q3URK3); test: pull-down
[4] = molecular target: MBP-TET1 1-120, valine to alanine mutant within residues 109-120 (mouse) (UniProt Q3URK3); test: pull-down
[5] = molecular target: MBP-TET1 1-120, glutamine to alanine mutant within residues 109-120 (mouse) (UniProt Q3URK3); test: pull-down
[6] = molecular target: MBP-TET1 1-120, serine to alanine mutant within residues 109-120 (mouse) (UniProt Q3URK3); test: pull-down
[7] = molecular target: (Flag)3-TET1 (734-1169), proline to alanine mutant within residues 1156-1169 (mouse) (UniProt Q3URK3); test: co-IP
[8] = molecular target: (Flag)3-TET1 (734-1169), isoleucine to alanine mutant within residues 1156-1169 (mouse) (UniProt Q3URK3); test: co-IP
[9] = molecular target: (Flag)3-TET1 (734-1169), leucine to alanine mutant within residues 1156-1169 (mouse) (UniProt Q3URK3); test: co-IP
[10] = molecular target: (Flag)3-TET1(1-1547) Δ1+2, serine to alanine mutant within residues 1522-1547 (mouse) (UniProt Q3URK3); test: co-IP

Measured: binding

(HA)3-NANOG ΔWR (from UniProt Q80Z64)
binds: [1]

B1: His-NANOG (protein, UniProt Q80Z64 1-305)
chain: MSVGLPGPHSLPSSEEASNSGNASSMPAVFHPENYSCLQGSATEMLCTEAASPRPSSEDLPLQGSPDSSTSPKQKLSSPEADKGPEEEENKVLARKQKMRTVFSQAQLCALKDRFQKQKYLSLQQMQELSSILNLSYKQVKTWFQNQRMKCKRWQKNQWLKTSNGLIQKGSAPVEYPSIHCSYPQGYLVNASGSLSMWGSQTWTNPTWSSQTWTNPTWNNQTWTNPTWSSQAWTAQSWNGQPWNAAPLHNFGEDFLQPYVQLQQNFSASDLEVNLEATRESHAHFSTPQALELFLNYSVTPPGEI
binds: [2] | [3] | [4] | [5] | [6]

B2: (HA)3-NANOG (protein, UniProt Q80Z64 1-305)
chain: B1 chain
binds: [7] | [8] | [9] | [10]
